Laboratory results as given in patent US20240165208A1, “Mutant KRAS-Targeting Peptide and Use Thereof” (GJMEDI INC., priority 2020, published 2024).
Results are given in words; binding and its absence hold for the method and conditions named. Some results given as binding are weak or reduced against the parent protein; the word gives no strength.

Key:
KRAS G12V protein [1] = molecular target: T1, KRAS G12V protein (UniProt P01116-2 1-188, limits assumed); assay: ITC
T1 construct: also called mutant KRAS G12V; mutant Kirsten-RAS

KRAS G12V protein [2] = molecular target: T1, KRAS G12V protein; assay: summary of the examples

B1: anticancer peptide GJ101 (peptide)
peptide: LYDVA
notes: Synthesised by solid phase peptide synthesis and purified by RP-HPLC to 95% or more; said to consist of 5 amino acids and to be derived from H-REV107; also called mutant KRAS-targeting anticancer peptide
binding (KRAS G12V protein [1]): binds | binding (KRAS G12V protein [2]): binds
